The target in assay [1] is neuropilin 2 (mouse (endogenous in mouse lung microvascular ECs)) (UniProt O35375). As to the kind of experiment: condition: only siNRP1 ECs pre-treated with 2 µM PF562271; co-IP; immunoprecipitation of NRP2 from siNRP1 EC lysates after pre-treatment with 2 µM PF562271; Western blot with anti-p120RasGAP. (In general: A western blot detects proteins with antibodies after separation by electrophoresis.)

Sequences of proteins named here, by UniProt entry; tags and fusion partners are left off. Residues count along the entry.
UniProt O35375, residues 21-931: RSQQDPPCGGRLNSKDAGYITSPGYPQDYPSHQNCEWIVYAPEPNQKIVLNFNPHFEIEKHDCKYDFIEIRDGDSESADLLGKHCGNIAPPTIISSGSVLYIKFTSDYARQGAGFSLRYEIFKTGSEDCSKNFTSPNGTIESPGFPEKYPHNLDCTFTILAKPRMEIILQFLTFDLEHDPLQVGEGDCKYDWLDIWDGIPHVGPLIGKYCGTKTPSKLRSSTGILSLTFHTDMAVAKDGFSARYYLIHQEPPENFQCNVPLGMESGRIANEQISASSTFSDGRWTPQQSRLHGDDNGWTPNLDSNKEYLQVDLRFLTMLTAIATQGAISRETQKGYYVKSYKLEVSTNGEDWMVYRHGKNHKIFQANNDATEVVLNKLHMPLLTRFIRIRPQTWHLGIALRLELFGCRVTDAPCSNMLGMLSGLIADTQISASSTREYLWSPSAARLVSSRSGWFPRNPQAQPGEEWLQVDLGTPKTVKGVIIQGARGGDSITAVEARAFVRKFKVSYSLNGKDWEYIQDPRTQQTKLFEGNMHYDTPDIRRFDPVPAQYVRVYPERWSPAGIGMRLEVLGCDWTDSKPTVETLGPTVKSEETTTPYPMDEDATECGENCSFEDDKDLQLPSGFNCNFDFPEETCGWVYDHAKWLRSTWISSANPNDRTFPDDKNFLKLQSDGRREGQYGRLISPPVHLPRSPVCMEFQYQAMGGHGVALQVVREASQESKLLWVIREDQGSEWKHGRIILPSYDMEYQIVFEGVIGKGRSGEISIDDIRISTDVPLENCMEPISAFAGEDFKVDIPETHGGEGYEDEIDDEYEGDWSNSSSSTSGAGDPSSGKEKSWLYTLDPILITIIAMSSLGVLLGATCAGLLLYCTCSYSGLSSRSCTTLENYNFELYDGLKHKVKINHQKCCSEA
UniProt P34152: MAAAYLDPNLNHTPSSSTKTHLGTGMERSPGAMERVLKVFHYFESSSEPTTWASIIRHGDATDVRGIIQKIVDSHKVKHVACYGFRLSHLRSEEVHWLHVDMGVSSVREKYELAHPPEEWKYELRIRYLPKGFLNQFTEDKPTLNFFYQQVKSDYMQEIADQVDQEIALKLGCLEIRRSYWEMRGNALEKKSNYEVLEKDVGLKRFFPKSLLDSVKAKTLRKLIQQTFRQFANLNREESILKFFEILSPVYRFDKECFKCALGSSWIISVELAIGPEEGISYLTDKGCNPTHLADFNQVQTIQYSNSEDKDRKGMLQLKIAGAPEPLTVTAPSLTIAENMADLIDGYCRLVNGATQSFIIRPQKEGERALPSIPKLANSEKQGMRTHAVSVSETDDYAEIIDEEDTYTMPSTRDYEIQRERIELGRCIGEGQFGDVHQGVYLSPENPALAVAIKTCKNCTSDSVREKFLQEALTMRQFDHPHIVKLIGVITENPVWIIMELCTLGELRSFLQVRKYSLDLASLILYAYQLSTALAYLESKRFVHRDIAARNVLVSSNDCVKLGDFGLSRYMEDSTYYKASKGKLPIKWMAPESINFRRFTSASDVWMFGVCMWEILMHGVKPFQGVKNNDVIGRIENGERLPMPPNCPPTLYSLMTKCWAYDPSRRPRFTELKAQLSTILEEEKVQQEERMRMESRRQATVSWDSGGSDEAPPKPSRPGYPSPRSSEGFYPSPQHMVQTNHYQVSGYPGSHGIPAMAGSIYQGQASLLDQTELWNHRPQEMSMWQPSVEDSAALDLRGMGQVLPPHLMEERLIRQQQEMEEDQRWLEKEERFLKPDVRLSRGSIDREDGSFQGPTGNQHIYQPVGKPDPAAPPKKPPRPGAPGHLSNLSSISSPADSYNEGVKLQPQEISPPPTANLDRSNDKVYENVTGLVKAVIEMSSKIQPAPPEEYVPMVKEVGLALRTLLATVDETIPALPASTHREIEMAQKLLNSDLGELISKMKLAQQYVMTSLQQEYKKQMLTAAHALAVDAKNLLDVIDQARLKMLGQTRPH

The target in assay [2] is focal adhesion kinase (mouse (endogenous in mouse lung microvascular ECs)) (UniProt P34152). The assay is described as follows: condition: only ECs pre-treated with 2 µM PF562271 prior to lysis; co-IP; as the co-IP of endogenous proteins from EC lysates, but ECs pre-treated with 2 µM PF562271 (FAK inhibitor) prior to lysis; Western blot with anti-p120RasGAP.
Assay [3] shares this target. The assay is described as follows: co-IP; endogenous proteins from mouse microvascular EC lysates (25 mM Tris-HCl pH 7.4, 100 mM NaCl, 2 mM MgCl2, 1 mM Na3VO4, 0.5 mM EGTA, 1% Triton X-100, 5% glycerol), 800 µg, Dynabeads Protein G with primary antibody at 4 °C, Western blot; Ctrl or siRNA-depleted ECs; ± 10 min pre-treatment with primaquine (0.3 mM).
Assay [4] concerns the target neuropilin 2 (mouse (endogenous in mouse lung microvascular ECs)) (UniProt O35375). The description is as above.

These are yes or no findings as the source states them, for the method shown. Binding seen in cells or lysates may run through a third protein. Some entries that bind do so weakly or less than the wild type.

1 molecule from paper PMC11126613 can be followed below.

B1: p120RasGAP (enzyme, UniProt E9PYG6 1-1038)
chain: MMAAEAGSEEGGPATAGPGGGAATGSSAYSAACRVKLPAALPVAAAPCPGLADADLVAALGGGAASGSGFLGTGPVAGVLGGAALTGSAAAGVAGAAAAGPAGDVAFTKGTLSLPAETLGPGGGFPPLPPPPQLPPLGSGLGTVDEGDSLDGPEYEEEEVAIPLTAPPTNQWYHGKLDRTIAEERLRQAGKSGSYLIRESDRRPGSFVLSFLSQTNVVNHFRIIAMCGDYYIGGRRFSSLSDLIGYYSHVSCLLKGEKLLYPVAPPEPVEDRRRVRAILPYTKVPDTDEISFLKGDMFIVHNELEDGWMWVTNLRTDEQGLIVEDLVEEVGREEDPHEGKIWFHGKISKQEAYNLLMTVGQVCSFLVRPSDNTPGDYSLYFRTNENIQRFKICPTPNNQFMMGGRYYNSIGDIIDHYRKEQIVEGYYLKEPVPMQDQGQVLNDTVDGKEIYNTIRRKTKDAFYKNIVKKGYLLKKGKGKRWKNLYFILEGSDAQLIYFESEKRATKPKGLIDLSVCSVYVVHDSLFGRPNCFQIVVQHFSEEHYIFYFAGETPEQAEDWMKGLQAFCSLRKSSPGTSNKRLRQVSSLVLHIEEAHKLPVKHFTNPYCNIYLNSVQVAKTHAREGQNPVWSEEFVFDDLPPDINRFEITLSNKTKKSKDPDILFMRCQLSRLQKGHATDEWFLLSSHIPLKGIEPGSLRVRARYSMEKIMPEEEYSEFKELILQKELHVVYALSHVCGQDRTLLASILLKIFLHEKLESLLLCTLNDREISMEDEATTLFRATTLASTLMEQYMKATATQFVHHALKDSILKIMESKQSCELSPSKLEKNEDVNTNLAHLLSILSELVEKIFMASEILPPTLRYIYGCLQKSVQHKWPTNNTMRTRVVSGFVFLRLICPAILNPRMFNIISDSPSPIAARTLTLVAKSVQNLANLVEFGAKEPYMEGVNPFIKSNKHRMIMFLDELGNVPELPDTTEHSRTDLSRDLAALHEICVAHSDELRTLSNERGVQQHVLKKLLAITELLQQKQNQYTKTNDIR
On to B1, for which the binding result in assay [1] was “no binding”; in assay [2], “no binding”; in assay [3], “binds”; in assay [4], “binds”.
